# Results taken from PubChem BioAssay AID687031 (Broad Institute, 2013).
# The whole screen tested about 1,400 compounds, of which about 50 (4%) were called active.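 Rule for the calls: active = fitted curve reaches 30% CPE protection at or below the top valid dose, with every test run called active; inconclusive = test runs disagree, some active and some not; inactive = every test run inactive, including effects in the wrong direction.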 This is one part of the list. Entries with a potency or affinity are not part of this list.
# Experiment: antiviral rescue of DENV2-infected BHK-21 cells – cell-based, ATP luminescence, cherry-pick, dose response (AID 687031);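 note: 0% = infected DMSO wells and 100% = uninfected cell wells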
# Conditions: BHK-21 DENV2 CPE protection, 5 d; at 19.5 µM (top of the series) unless noted
row,SMILES,CPE protection (higher = active)
1,Cc1ccc(CNCc2cc(Cl)ccc2O)cc1,inactive: -18.1%
2,CC(=O)NC[C@H]1[C@H](c2ccc(-c3ccccc3F)cc2)[C@@H](CO)N1C(=O)C1CC1,inactive: -16.5%
3,CCc1ccc(NC(=O)N(CCCN2CCOCC2)Cc2cccs2)cc1,inactive: -13%
4,CC(=O)Nc1ccc(-c2ccnc3c2CC(C(=O)Nc2ccccc2)O3)cc1 (stereo not given),inactive: -11.2%
5,CCOc1ccc(OCC(=O)N(C)c2c(N)n(Cc3ccccc3)c(=O)[nH]c2=O)cc1,inactive: 0.088%
6,C=CCOc1ccccc1OCC(O)CNC(C)C (stereo not given),inactive: 10.9%
7,CN(c1cccc(NC(=O)c2ccc(C(C)(C)C)cc2)c1)S(C)(=O)=O,inactive: -35.6%
8,Cc1csc(-c2nc3ccccc3n2C(C(=O)NC(C)(C)C)c2ccccc2)c1 (stereo not given),inactive: -21.3%
9,COc1ccc(CN(C(=O)c2ccc(C)cc2)c2cccc(N)c2)cc1,inactive: -13.5%
10,CC(C)(C)OC(=O)N1CCC(NC(=O)c2nc[nH]c2C(=O)NCC(=O)OCc2ccccc2)CC1,inactive: -1.19%
11,CC(C(=O)NCc1ccccc1)n1c(CSCCOc2ccccc2)nc2ccccc21 (stereo not given),inactive: 14.1% [at 10 µM]
12,O=C(C[C@@H]1CC[C@H]2[C@@H](COC[C@@H](O)CN2Cc2cccc(Cl)c2)O1)N1CCOCC1,inactive: -1.26%
13,CN1CCC(=O)N([C@H](COc2ccccc2)Cc2ccccc2)CC1,inactive: 4.89%
14,CCOc1ccc2nc(NC(=O)CN3CCN(CC)CC3)sc2c1,inactive: -2.67%
15,C[C@@H]1CN([C@@H](C)CO)C(=O)CCCn2cc(nn2)CO[C@H]1CN(C)C(=O)Nc1cccc2ccccc12,inactive: 12.5% [at 21 µM]
16,COc1ccc(/C=N\NC(=O)c2ccc(-c3ccccc3)cc2)cc1COC(C)=O,inactive: 7.02%
17,CC1(C)CN(Cc2cccnc2)C(=O)[C@H]1CC(=O)Nc1ccc(Br)cc1,inactive: -8.43%
18,Cc1noc(C)c1S(=O)(=O)Nc1ccc2c(c1)C(=O)N([C@@H](C)CO)C[C@@H](C)[C@H](CN(C)C(=O)Nc1ccccc1)OCCCC[C@@H](C)O2,inactive: -30.8%
19,CCC(=O)Nc1nnc(/C=C/c2ccc(OC)cc2)s1,inactive: 21.1%
20,CCOC(=O)N1CCN(Cc2nc3cc(NC(=O)CC)ccc3n2CC)CC1,inactive: 15.8%
21,CCCNC(=O)N1[C@H](CO)[C@H](c2ccccc2-c2ccccc2)[C@@H]1C#N,inactive: -6.89% [at 21 µM]
22,Cc1oc2cc3oc(=O)c(CCC(=O)NCCCn4ccnc4)c(C)c3cc2c1C,inactive: -30%
23,CC(=O)N1[C@H](CO)[C@H](c2ccccc2)C12CN(C(=O)CN1CCOCC1)C2,inactive: 6.64%
24,COc1ccc(Cl)cc1N1C(=O)CC(N2CCN(S(=O)(=O)c3ccccc3F)CC2)C1=O (stereo not given),inactive: -0.667%
25,O=C(CCn1cncn1)N1CCCC(N2CCN(c3ccc(F)cc3)CC2)C1 (stereo not given),inactive: -11.5%
26,C[C@H](NC(=O)C1CCN(S(=O)(=O)c2ccccc2)CC1)C(=O)NCc1cccnc1,inactive: 11.9%
27,O=C(CCc1nc2ccccc2c(=O)[nH]1)N1CCCc2ccccc21,inactive: -18.8%

# Laid out differently: entries from further up
row | SMILES | CPE protection (higher = active)
3 | CCc1ccc(NC(=O)N(CCCN2CCOCC2)Cc2cccs2)cc1 | inactive: -13%
10 | CC(C)(C)OC(=O)N1CCC(NC(=O)c2nc[nH]c2C(=O)NCC(=O)OCc2ccccc2)CC1 | inactive: -1.19%
11 | CC(C(=O)NCc1ccccc1)n1c(CSCCOc2ccccc2)nc2ccccc21 (stereo not given) | inactive: 14.1% [at 10 µM]

# Going on with the list:

row,SMILES,CPE protection (higher = active)
1,CO[C@@H]1CN(C)C(=O)c2ccc(NC(=O)Nc3cc(F)ccc3F)cc2OC[C@@H](C)N(C(=O)c2ccccn2)C[C@H]1C,inactive: 17.2% [at 21 µM]
2,CCN1CCN(C(=O)C2CC(=O)N(c3ccc(Cl)cc3)C2)CC1 (stereo not given),inactive: -9.64%
3,O=C(c1ccc(CNc2c(N3CCCC3)c(=O)c2=O)cc1)N1CCN(C2CCCCC2)CC1,inactive: 5.25%
4,CCC1=C(OC(=O)N(CC)CC)N2C(=O)OC(=NCC3CC3)[C@]2(C)[C@H]2C1=CC[C@H]1C(=O)NC(=O)[C@H]12,inactive: 2.64%
5,CCOC(=O)N/N=C/c1cc(C)n(-c2cccc3ccccc23)c1C,inactive: 13.1%
6,COc1ccc(S(=O)(=O)Nc2ccc3c(c2)C(=O)N([C@@H](C)CO)C[C@@H](C)[C@H](CN(C)S(=O)(=O)c2ccc(Cl)cc2)O3)cc1,inactive: 6.17% [at 21 µM]
7,Oc1cc2c(cc1O)C(c1ccccc1)CNCC2 (stereo not given),inactive: -12.6%
8,O=S1(=O)CCOC[C@H](Cc2ccccc2)N1Cc1cccc(F)c1,inactive: 14.1% [at 10 µM]
9,CCOc1ccc(NC(=O)C2CC(=O)N(CCc3ccccc3)C2)cc1OC (stereo not given),inactive: -11.4%
10,Cc1ccc(S(=O)(=O)NC(=O)C2(C)CCN2C(=O)Cc2cccs2)cc1 (stereo not given),inactive: -2.07%
11,COc1ccc(Br)cc1[C@H]1[C@H]2C=CC[C@@H](C)[C@@H]2C(=O)N1Cc1ccccc1,inactive: -20.3%
12,CC(C)(C)OC(=O)C(Cc1ccc(OC(C)(C)C)cc1)NC(=O)CNC(=O)OCc1ccccc1 (stereo not given),inactive: -14.3%
13,Cc1ccc(S(=O)(=O)N2CCOCC2)cc1NC(=O)CN(C)CC(=O)Nc1cccc(F)c1,inactive: -5.13%
14,COCc1cccc(-c2csc(C(N)c3ccc(F)c(F)c3)n2)c1 (stereo not given),inactive: 0.55%
15,CC(=O)Nc1cccc2ncccc12,inactive: 7.69%
16,Cc1ccc(SCCN2CCC(NC(=O)OCc3ccccc3)CCC2=O)cc1 (stereo not given),inactive: -8.36%
17,COc1ccccc1C(=O)Nc1ccc2c(c1)CN(Cc1cnc(C)s1)CC2,inactive: -14.8%
18,Cc1cc(C)n2c(Nc3ccc4c(c3)OCCO4)c(CC(C)C)nc2n1,inactive: 3.78%
19,COc1ccccc1Cn1c(=S)[nH]c2cc(C(=O)N3CC(C)CC(C)C3)ccc2c1=O (stereo not given),inactive: 2.5%
20,O=C(NCC1CCCO1)c1ccc(S(=O)(=O)Nc2ccccc2F)cc1 (stereo not given),inactive: 2.64%
21,COc1ccc(S(=O)(=O)N(C)C[C@@H]2Oc3ccc(NS(=O)(=O)c4ccccc4)cc3C(=O)N([C@H](C)CO)C[C@H]2C)cc1,inactive: -7.04%
22,CCCNC(=O)[C@H]1[C@H](CO)[C@H]2Cn3c(cccc3=O)[C@H]2N1Cc1ccccc1Cl,inactive: -16.8% [at 21 µM]
23,Cc1cc(C)n2c(Nc3c(C)cccc3C)c(CCc3ccccc3)nc2n1,inactive: 6.99%
24,O=C(NCCCCNC(=O)c1cccnc1Cl)c1cccnc1Cl,inactive: -18.4%
25,Cc1ccccc1-c1csc(C(C)(O)c2ccccc2)n1 (stereo not given),inactive: 16.6%
26,COc1ccc(Cl)cc1NC(=O)CN(C)C(=O)C1COc2ccccc2O1 (stereo not given),inactive: -19.1%
27,C[C@@H]1CCCCO[C@@H](CN(C)C(=O)Nc2cccc3ccccc23)[C@H](C)CN([C@H](C)CO)C(=O)c2cc(NC(=O)CCC(F)(F)F)ccc2O1,inactive: -31.9%

row,SMILES,CPE protection (higher = active)
1,CCn1c2c(n(C(C)=O)c1=O)C[C@@H](c1ccccc1)[C@@H](C)[C@@H](C(=O)N1CCCC1)C2,inactive: -3.98%
2,Cc1ccc(S(=O)(=O)Nc2ccc(O)c3ncccc23)cc1,inactive: 18.2%
3,COc1ccc2nc(NN=Cc3cccc(C)n3)cc(C)c2c1,inactive: -0.492%
4,C[C@@H]1CN([C@H](C)CO)C(=O)c2cc(NC(=O)CCC(F)(F)F)ccc2O[C@@H](C)CCCCO[C@@H]1CN(C)C(=O)C1CCCCC1,inactive: 0.852%
5,CCCc1nc2ccccc2n1C(C)C(=O)NC(C)(C)C (stereo not given),inactive: 20.8%
6,O=C1NC(c2ccccc2)=CC(c2ccccc2O)N1 (stereo not given),inactive: -4.39%
7,CN(C)CCNc1nc2sc3c(c2c(=O)n1-c1ccc(F)cc1)CCCCC3,inactive: -4.86%
8,CCNC(=O)C[C@H]1CC[C@H]2[C@H](COc3ccc(NC(=O)c4ccc(F)c(F)c4)cc3C(=O)N2C)O1,inactive: -15.2%
9,O=S(=O)(c1ccc(F)cc1)N1CC[C@@H]2[C@H]1c1cc(-c3ccc(F)cc3)ccc1N[C@@H]2CO,inactive: -24%
10,Cc1ccc(S(=O)(=O)Nc2cccc(C(=O)NCCCn3ccnc3)c2)cc1F,inactive: -1.15%
11,Nc1ccc(CC(N)c2csc(Nc3cc(Oc4ccccc4)ncn3)n2)cc1 (stereo not given),inactive: -9.32%
12,CCC(C)[C@H](NC(=O)[C@@H]1Cc2ccccc2CN1)C(=O)NCc1ccc(C)cc1 (stereo not given in full),inactive: 20%
13,CCCc1cc(=O)oc2c(C)c(OCC(=O)N3C[C@H]4C[C@@H](C3)c3cccc(=O)n3C4)ccc12,inactive: -5.43%
14,COc1ccc(C2CC(c3cccs3)=NN2C(=O)CCC(=O)O)cc1OC (stereo not given),inactive: -2.94%
15,O=C(C1CCOCC1)N1[C@H](CO)[C@@H](c2ccccc2)C12CN(Cc1cccnc1)C2,inactive: -4.83% [at 21 µM]
16,CCCN(CCC)CCCNC(=O)c1cc2c(=O)[nH]c3ccccc3c2n1C,inactive: -5.11%
17,CCN1CCN(CCC(=O)Nc2ccc(Br)c(C)c2)CC1,inactive: -24%
18,COc1ccc2oc(C(=O)OC(C)C(=O)N3CCC(C)CC3)c(C)c2c1 (stereo not given),inactive: 19.8%
19,CC(C)NC(=O)N1CC[C@@H]2[C@H]1c1cc(Br)ccc1N(C)[C@@H]2CO,inactive: 6.46%
20,O=C(NNc1c(F)c(F)cc(F)c1F)C1CCN(S(=O)(=O)c2ccccc2F)CC1,inactive: -10.8%
21,COc1cc(C)nc(N2CCC(C(=O)NCC3CCCO3)CC2)n1 (stereo not given),inactive: 18.9%
22,CCS(=O)(=O)N1CCC2(CC1)OCCN2S(=O)(=O)c1ccccc1,inactive: 16.5%
23,C[C@H]1CN=C(Nc2ccccc2)N1CCCC1CCCC1,inactive: 5.18%
24,COc1cccc(-c2ncc3ccccc3c2COC(=O)c2ccc(F)cc2)c1,inactive: -3.47%
25,CC(=O)NCCNc1nc(NCc2cccs2)nc2ccsc12,inactive: 1.39%
26,C[C@@H]1CCCCO[C@H](CN(C)C(=O)Nc2cccc3ccccc23)[C@@H](C)CN([C@@H](C)CO)C(=O)c2cc(NS(=O)(=O)c3cn(C)cn3)ccc2O1,inactive: 22.5%
